Results as given in publication PMC10611716.

T1: Myc-tagged Drosophila Naa30A (CG11412) (Drosophila melanogaster) (UniProt Q95RC0)
T1 sequence: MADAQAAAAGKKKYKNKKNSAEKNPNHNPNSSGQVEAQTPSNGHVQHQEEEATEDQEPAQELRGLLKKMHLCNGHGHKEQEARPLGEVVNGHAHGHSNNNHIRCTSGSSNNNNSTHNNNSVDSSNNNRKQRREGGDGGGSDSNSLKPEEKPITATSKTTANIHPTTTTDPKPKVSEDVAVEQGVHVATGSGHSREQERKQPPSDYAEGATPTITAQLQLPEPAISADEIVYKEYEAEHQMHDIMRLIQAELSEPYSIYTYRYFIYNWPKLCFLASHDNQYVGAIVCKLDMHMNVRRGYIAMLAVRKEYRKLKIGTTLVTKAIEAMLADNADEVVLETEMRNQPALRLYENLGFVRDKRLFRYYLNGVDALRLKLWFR


Molecular target: T1, Myc-tagged Drosophila Naa30A (CG11412) (Drosophila melanogaster)
Experiment: affinity purification with mass spectrometry; immunoprecipitation with an anti-Myc antibody from Drosophila embryos expressing Myc-tagged Naa30A (UAS/Gal4, nanos-Gal4 driver), mass spectrometry

binding	Binder
binds	Drosophila orthologue of NAA38/Mak31 (CG31950) (protein, UniProt Q8IPZ7 1-121) MTELSITGQQVMPPPACTPPEPFRITTNAPHQMNDASLTPGRRKLQKWLGRVLRIVITDGRVLVGFFNCTDRDANIVLSMCAEYLVEGQEPRLLGNVMVPGQHIVSLSIDEPDPQSSLLVQ
binds	Drosophila orthologue of NAA35/Mak10 (CG4065) (protein, UniProt Q9W1A2 1-784) MYPSTLPAEADPSTMNGSSVAEPPDFQAATAAAAAAARASSLEQDEWSVGECGFLDPDVQRTMRSGSAAEDITQYPMHGWVDVTKEFHDACAELQPGELAQDMLFGLFEAMSAIEIMDPKMDVGMGFDKQDLPPPSFEAAIATGAIKLDDLTPSELIGIYDALFSCLVSWLEGNSMDQVLFTCLYLHAPAQIKDKALRVFCTAVRNLIVVIKKIIAVAAVNEEEDFQLYGNSALLAAEKAQPATVYSSLKDVEDELIRKCKKLTSTEDWMAVVHRLRFMRHLFQVIYHVEQMASNDTVDDKVDIYKILLVASEMLPGIRNTLDRGTQPEKGSDAPNPMGFSPRIHDRSQPPAFPRSIKIRDRPSSYQFLEEMISRFKYACKVTKYKDYYSALNFFIEYSKKSGQCILSRSVLQTLFSANMRMAHGKLPMKQFLRHSVQVFNSPPVLNAKHPVAADPKVQQHLENFFRYCINMNTFTQFIRICGFNRARQRDKLARLIENFDTIQVDAARLDSMMNQLANERAMEGNEPMATALKHSTHFSTWVLYNCFRAMLIFLMSGFELELYAVHEFLYIYWYPYEFLIGFLVSALTRTENILLAQEEYAEHQSKTQSGGSGAAKNRKAAKPKKNKKTQRPYRAEIVFYHALLSLCGGMYKAMGALTKDGRVRLPLSKFDNEEIRYNRRFLPFATLTSPPPVSYAEFKNVREHMMRHSVEDLYTYAAKHFDQARNVLESIQNPDQEMLDLLQIARTNFVVMNVLARGHQKEVKRQPEFDFSKHSYFPIIKLK

No constants are given. Whether binding was seen depends on the method and setting. In cells and extracts the contact can be indirect. A yes stands for co-enrichment or nearness to the bait. Other partners may have been found. Where a sequence is shown, tags or fusion partners need not be part of it.
